Drawing on PMC7171490, this text covers binding for one molecule.

The chains behind the UniProt entries cited, without tags or fusion partners.
UniProt P15172: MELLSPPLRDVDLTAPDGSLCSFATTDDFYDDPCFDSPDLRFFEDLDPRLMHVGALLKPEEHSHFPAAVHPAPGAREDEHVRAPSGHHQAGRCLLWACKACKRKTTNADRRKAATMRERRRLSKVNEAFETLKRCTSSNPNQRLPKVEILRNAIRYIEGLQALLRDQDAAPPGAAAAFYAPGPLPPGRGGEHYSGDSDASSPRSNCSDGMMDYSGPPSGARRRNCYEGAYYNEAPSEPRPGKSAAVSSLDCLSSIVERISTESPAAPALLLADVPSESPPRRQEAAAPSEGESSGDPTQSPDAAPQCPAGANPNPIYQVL

No constants are given. Whether binding was seen depends on the method and setting. In cells and extracts the contact can be indirect. Some binding calls cover weakened binding; strength is not graded here.

For this test, the target named is MyoD1 (human (endogenous in MCF-7/Adr)) (UniProt P15172). Kind of test: co-IP; 1500 ug precleared MCF7/Adr cell lysate immunoprecipitated with 1 ug anti-MyoD1 antibody overnight at 4°C, Protein A Sepharose CL-4B; western blot for ID4 and MyoD1.

B1: Inhibitor of DNA binding factor 4 (ID4) (protein, UniProt P47928 1-161)
chain: MKAVSPVRPSGRKAPSGCGGGELALRCLAEHGHSLGGSAAAAAAAAAARCKAAEAAADEPALCLQCDMNDCYSRLRRLVPTIPPNKKVSKVEILQHVIDYILDLQLALETHPALLRQPPPPAPPHHPAGTCPAAPPRTPLTALNTDPAGAVNKQGDSILCR
As for B1, the binding result was “binds”.
